Results are given in words; binding and its absence hold for the method and conditions named. Binding seen in cells or lysates may run through a third protein. Some entries that bind do so weakly or less than the wild type.
Target: HEXIM1, endogenous in HeLa (human (endogenous in HeLa)) (UniProt O94992)
Test: co-IP; P-TEFb release assay: 7SK snRNP from HeLa whole cell extract immobilised with HEXIM1 antibody on Protein G Dynabeads; RNAse A or actin added as release agent; blot with Cdk9 and HEXIM1 antibodies

Protein sequences, listed by entry. Tags and fused reporters are not part of them.
UniProt O94992: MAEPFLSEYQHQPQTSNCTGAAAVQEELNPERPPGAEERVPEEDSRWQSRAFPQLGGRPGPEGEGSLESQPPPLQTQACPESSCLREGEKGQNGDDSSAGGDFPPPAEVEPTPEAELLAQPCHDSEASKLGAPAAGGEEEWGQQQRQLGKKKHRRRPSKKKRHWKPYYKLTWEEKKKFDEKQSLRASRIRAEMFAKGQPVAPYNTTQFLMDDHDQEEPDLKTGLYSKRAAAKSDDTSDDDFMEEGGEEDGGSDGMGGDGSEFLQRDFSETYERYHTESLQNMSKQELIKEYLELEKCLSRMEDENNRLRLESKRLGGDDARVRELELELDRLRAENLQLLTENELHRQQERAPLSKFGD

Cdk9, endogenous in HeLa (P-TEFb in 7SK snRNP) (from UniProt P50750 1-372) (enzyme)
binding: binds

Source: article PMC10891344
